Data as given in the supplement of paper PMC10331698.
± gives the standard deviation of the averaged measurements. Most values lie at the level of the controls, where differences are scatter.

Legend:
Assay in all cases: level (log10 ratio to DMSO vehicle control); higher = higher biomarker level / cell amount than vehicle control
[1] = compound: OCCC(F)(F)C(F)(F)C(F)(F)C(F)(F)C(F)(F)C(F)(F)C(F)(F)C(F)(F)F [8:2 Fluorotelomer alcohol]; conditions: 2200 nM; in DMSO
Protocol: (§1)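 BioMAP Diversity Plus panel of 12 human primary cell co-culture systems (3C, 4H, LPS, SAg, BT, BF4T, BE3C, CASM3C, HDF3CGF, KF3CT, MyoF, Mphg). Compounds were added 1 h before stimulation and left for 24 h (MyoF 48 h; BT 72 h for soluble read-outs or 6 d for IgG). Biomarkers were read by ELISA, cytotoxicity by SRB, PBMC viability and proliferation by Alamar Blue. Each well value was divided by the mean of 8 DMSO control wells on the same plate and log10 transformed; duplicate blinded samples were tested at 4 concentrations.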

[2] = compound: OCC(F)(F)C(F)(F)C(F)(F)C(F)(F)C(F)(F)C(F)(F)C(F)(F)C(F)(F)C(F)(F)C(F)(F)C(F)(F)F [11:1 Fluorotelomer alcohol]; conditions: in DMSO
Protocol: as §1

[3] = compound: C=C(C)C(=O)OCC(F)(F)C(F)(F)C(F)(F)F [2,2,3,3,4,4,4-Heptafluorobutyl methacrylate]; conditions: 2200 nM; in DMSO
Protocol: as §1

[4] = compound: NC(=O)C(F)(F)C(F)(F)C(F)(F)C(F)(F)C(F)(F)C(F)(F)C(F)(F)F [Perfluorooctanamide]; conditions: 2200 nM; in DMSO
Protocol: as §1

[5] = compound: O=C(O)C(F)(F)OC(F)(F)C(F)(F)OC(F)(F)C(F)(F)C(F)(F)C(F)(F)F [Perfluoro-3,6-dioxadecanoic acid]; conditions: 2200 nM; in DMSO
Protocol: as §1

[6] = compound: C=CC(=O)OCC(F)(F)C(F)(F)C(F)(F)C(F)(F)COC(=O)C=C [1H,1H,6H,6H-Perfluorohexane-1,6-diol diacrylate]; conditions: 2200 nM; in DMSO
Protocol: as §1

[7] = compound: FC(F)(F)C(F)(F)C(F)(F)C(F)(F)C(F)(F)C(F)(F)C(F)(F)CCI [1-Iodo-1H,1H,2H,2H-perfluorononane]; conditions: in DMSO
Protocol: as §1

[8] = compound: O=P(O)(O)CCC(F)(F)C(F)(F)C(F)(F)C(F)(F)C(F)(F)C(F)(F)C(F)(F)C(F)(F)F [((Perfluorooctyl)ethyl)phosphonic acid]; conditions: 2200 nM; in DMSO
Protocol: as §1

[9] = compound: O=C(O)C(F)(F)C(F)(F)C(F)(F)C(F)(F)C(F)(F)C(F)(F)C(F)(F)C(F)F [9-H-Perfluorononanoic acid]; conditions: 2200 nM; in DMSO
Protocol: as §1

[10] = compound: O=C(O)C(F)(F)C(F)(F)OC(F)(F)F [Perfluoro-3-methoxypropanoic acid]; conditions: 2200 nM; in DMSO
Protocol: as §1

[11] = compound: FC(F)C(F)(F)COCC1CO1 [((2,2,3,3-Tetrafluoropropoxy)methyl)oxirane]; conditions: 2200 nM; in DMSO
Protocol: as §1

[12] = compound: FC(F)(F)C(F)(F)C(F)(F)C(F)(F)C(F)(F)C(F)(F)C(F)(F)I [1-Iodopentadecafluoroheptane]; conditions: in DMSO
Protocol: as §1

[13] = compound: O=S(=O)(Cl)C(F)(F)C(F)(F)C(F)(F)C(F)(F)C(F)(F)C(F)(F)C(F)(F)C(F)(F)F [Perfluoro-1-octanesulfonyl chloride]; conditions: 2200 nM; in DMSO
Protocol: as §1

[14] = compound: O=C(O)C(F)(F)C(F)(F)C(F)(F)C(F)(F)C(F)(F)C(F)(F)C(F)(F)C(F)(F)C(F)(F)C(F)(F)F [Perfluoroundecanoic acid]; conditions: in DMSO
Protocol: as §1

[15] = compound: O=C(O)C(F)(F)OC(F)(F)C(F)(F)OC(F)(F)C(=O)O [Perfluoro-3,6-dioxaoctane-1,8-dioic acid]; conditions: 2200 nM; in DMSO
Protocol: as §1

[16] = compound: O=C(O)C(F)(F)C(F)(F)C(F)(F)F [Perfluorobutanoic acid]; conditions: 2200 nM; in DMSO
Protocol: as §1

[17] = compound: O=C(O)C(F)(F)C(F)(F)F [Perfluoropropanoic acid]; conditions: 2200 nM; in DMSO
Protocol: as §1

[18] = compound: O=C(O)C=CC(F)(C(F)(F)F)C(F)(F)F [3-(Perfluoroisopropyl)-2-propenoic acid]; conditions: in DMSO
Protocol: as §1

Row | Test System | level (log10) [1] | level (log10) ([2]; 370 nM) | level (log10) ([2]; 1100 nM) | level (log10) ([2]; 3300 nM) | level (log10) ([2]; 10000 nM) | level (log10) [3] | level (log10) [4] | level (log10) [5] | level (log10) [6] | level (log10) ([7]; 740 nM) | level (log10) ([7]; 2200 nM) | level (log10) ([7]; 6700 nM) | level (log10) ([7]; 20000 nM) | level (log10) [8] | level (log10) [9] | level (log10) [10] | level (log10) [11] | level (log10) ([12]; 740 nM) | level (log10) ([12]; 2200 nM) | level (log10) ([12]; 6700 nM) | level (log10) ([12]; 20000 nM) | level (log10) [13] | level (log10) ([14]; 740 nM) | level (log10) ([14]; 2200 nM) | level (log10) [15] | level (log10) [16] | level (log10) [17] | level (log10) ([18]; 2200 nM) | level (log10) ([18]; 6700 nM) | level (log10) ([18]; 20000 nM) | level (log10) ([18]; 60000 nM)
1 | BE3C:CXCL8/IL-8 | -0.0055 ± 0.039 | -0.0385 ± 0.03 | -0.086 ± 0.011 | -0.158 ± 0.055 | -0.0975 ± 0.042 | 0.0185 ± 0.1 | 0.0015 ± 0.021 | -0.0055 ± 0.022 | -0.0085 ± 0.0021 | 0.075 ± 0.0085 | 0.0205 ± 0.077 | 0.018 ± 0.11 | 0.0505 ± 0.12 | 0.075 ± 0.062 | 0.0515 ± 0.083 | 0.0115 ± 0.023 | 0.003 ± 0.0028 | 0.0085 ± 0.052 | -0.005 ± 0.014 | -0.0175 ± 0.0078 | -0.007 ± 0.0057 | 0.023 ± 0.016 | 0.0365 ± 0.076 | 0.0065 ± 0.042 | -0.019 ± 0.018 | 0.0205 ± 0.04 | 0.0135 ± 0.025 | 0.013 ± 0.09 | -0.0015 ± 0.035 | 0.003 ± 0.0057 | 0.0545 ± 0.059
2 | BE3C:CXCL9/MIG | 0.0035 ± 0.012 | 0.001 ± 0.011 | -0.0195 ± 0.00071 | -0.03 ± 0.0028 | -0.0385 ± 0.022 | 0.0015 ± 0.0092 | 0.021 ± 0.011 | -0.001 ± 0.027 | 0.0105 ± 0.00071 | -0.0065 ± 0.005 | -0.001 ± 0.0028 | -0.0085 ± 0.0035 | -0.0015 ± 0.0092 | 0.0175 ± 0.018 | -0.007 ± 0.0042 | 0.013 ± 0.02 | -0.009 ± 0.018 | 0.009 ± 0.0099 | 0.009 ± 0.024 | -0.0035 ± 0.021 | 0.003 ± 0.013 | 0.0055 ± 0.012 | 0.014 ± 0.0099 | 0.013 ± 0.0042 | 0.005 ± 0.035 | -0.0005 ± 0.019 | -0.003 | 0.0125 ± 0.033 | 0.0135 ± 0.015 | 0.016 ± 0.017 | 0.0235 ± 0.013
3 | BE3C:CXCL10/IP-10 | -0.031 ± 0.04 | 0.005 ± 0.034 | -0.0345 ± 0.035 | -0.0745 ± 0.03 | -0.043 ± 0.0071 | 0.0305 ± 0.039 | 0.016 ± 0.033 | -0.0175 ± 0.011 | -0.0075 ± 0.021 | -0.008 ± 0.016 | 0.002 ± 0.013 | 0 ± 0.016 | 0.0025 ± 0.011 | -0.0055 ± 0.0035 | 0.0075 ± 0.0092 | -0.0005 ± 0.0021 | 0.0015 ± 0.011 | 0.0245 ± 0.046 | 0.0155 ± 0.037 | 0.01 ± 0.02 | 0.0195 ± 0.035 | 0.0005 ± 0.0035 | 0.0225 ± 0.04 | 0.012 ± 0.02 | -0.001 ± 0.0099 | -0.006 ± 0.016 | 0.0045 ± 0.0021 | 0.0045 ± 0.005 | 0.0055 ± 0.0035 | 0.004 ± 0.0099 | 0.009 ± 0.0014
4 | BE3C:CXCL11/I-TAC | 0.003 ± 0.014 | -0.002 ± 0.04 | -0.0085 ± 0.018 | -0.025 ± 0.024 | -0.005 ± 0.013 | 0.018 ± 0.045 | -0.0075 ± 0.0021 | 0.03 ± 0.0099 | 0.002 ± 0.0028 | -0.0025 ± 0.011 | -0.0075 ± 0.00071 | -0.004 ± 0.0057 | -0.001 ± 0.0042 | -0.0165 ± 0.00071 | 0 ± 0.0014 | -0.001 ± 0.011 | -0.009 ± 0.038 | 0.0045 ± 0.028 | 0.0055 ± 0.013 | 0.0005 ± 0.015 | 0.004 ± 0.013 | -0.0035 ± 0.005 | 0.01 ± 0.023 | 0.0165 ± 0.013 | -0.013 ± 0.0057 | -0.0005 ± 0.019 | 0.0225 ± 0.04 | -0.015 ± 0.0085 | -0.0175 ± 0.0078 | -0.009 ± 0.0057 | 0.005 ± 0.011
5 | BE3C:EGFR | -0.005 ± 0.0099 | 0.0045 ± 0.029 | -0.022 ± 0.011 | -0.003 ± 0.018 | -0.019 ± 0.0099 | 0.025 ± 0.016 | 0.004 ± 0.028 | -0.0065 ± 0.011 | 0.0095 ± 0.021 | 0.009 ± 0.028 | -0.0005 ± 0.0035 | 0.005 ± 0.014 | -0.008 ± 0.02 | 0.0015 ± 0.016 | -0.0215 ± 0.005 | -0.0005 ± 0.081 | -0.0035 ± 0.012 | 0.012 ± 0.023 | 0.051 ± 0.013 | 0.014 ± 0.0071 | 0.0185 ± 0.026 | -0.003 ± 0.014 | 0.018 ± 0.017 | 0.0205 ± 0.011 | 0.0125 ± 0.043 | -0.0035 ± 0.018 | 0.002 ± 0.011 | -0.007 ± 0.025 | 0.0005 ± 0.016 | 0.0085 ± 0.00071 | 0.004 ± 0.0014
6 | BE3C:HLA-DR | 0.0125 ± 0.0035 | -0.035 ± 0.0057 | -0.0755 ± 0.037 | -0.141 ± 0.015 | -0.163 ± 0.0042 | 0.0025 ± 0.0035 | 0.01 ± 0.0042 | -0.015 ± 0.025 | -0.002 ± 0.017 | 0.0005 ± 0.015 | 0.0135 ± 0.00071 | -0.0065 ± 0.0035 | -0.0225 ± 0.0092 | 0.0145 ± 0.018 | -0.04 ± 0.02 | 0.0065 ± 0.028 | 0.0145 ± 0.00071 | -0.0045 ± 0.021 | -0.0055 ± 0.0035 | 0.0035 ± 0.0021 | 0.0015 ± 0.0078 | 0.021 ± 0.031 | -0.0045 ± 0.00071 | -0.0075 ± 0.0021 | 0.0015 ± 0.029 | -0.004 ± 0.021 | -0.0115 ± 0.018 | 0.0155 ± 0.032 | -0.0075 ± 0.013 | 0.0035 ± 0.015 | 0.0095 ± 0.018
7 | BE3C:IL-1alpha | 0 ± 0.0099 | 0.007 ± 0.013 | -0.011 ± 0.018 | -0.0325 ± 0.0021 | -0.029 ± 0.02 | 0.0025 ± 0.00071 | 0.006 ± 0.0014 | 0.0025 ± 0.0035 | -0.0145 ± 0.013 | -0.0075 ± 0.022 | 0.0015 ± 0.032 | -0.0075 ± 0.0078 | 0.0075 ± 0.026 | 0.005 ± 0.013 | 0.025 ± 0.03 | 0.012 ± 0.031 | -0.0165 ± 0.0035 | -0.0215 ± 0.00071 | -0.0065 ± 0.0092 | -0.0175 ± 0.005 | -0.0185 ± 0.0021 | 0.011 ± 0.014 | -0.017 ± 0.0071 | -0.0175 ± 0.00071 | 0.0265 ± 0.016 | 0.0365 ± 0.012 | -0.023 ± 0.0057 | -0.0075 ± 0.033 | -0.001 ± 0.031 | -0.0065 ± 0.0064 | 0.0025 ± 0.005
